According to patent publication EP2879657B1, “NOVEL SIRT1 ACTIVATORS AND PHARMACEUTICAL OR COSMETIC COMPOSITIONS COMPRISING THEM” (Centre National de la Recherche Scientifique (C.N.R.S.), priority 2012, dated 2014):
Some of these results come from one statement about several compounds together.

Legend:
Format in all cases: cell-based
[1] = system: préadipocytes primaires sous-cutanés humains; experiment: Intracellular triglyceride quantification (AdipoRed Assay Reagent) during adipocyte differentiation
[2] = system: préadipocytes primaires sous-cutanés humains; experiment: Oil Red O staining of intracellular lipids during adipocyte differentiation; conditions: day 14 of differentiation, treated at J1 and J7, 10 and 50 µM
[3] = system: préadipocytes primaires sous-cutanés humains; experiment: Adipsin level in culture medium of differentiating adipocytes (BioPlex); conditions: day 7 of differentiation; 10, 25 and 50 µM; dose-dependent
[4] = day 7, compound added once at J1, 10 and 50 µM, 10080 min
[5] = day 14, compound added at J1 and J7, 10 and 50 µM, 20160 min

Row | Structure (SMILES) | diminution de la quantité des triglycérides [1, 4] | diminution de la quantité des triglycérides [1, 5] | accumulation de lipides (coloration par l'Oil Red O) [2] | quantité d'adipsine dans le milieu de culture [3]
1 | CC(=O)N[C@H]1CC[C@@]2(C)C(=CC[C@H]3[C@@H]4CC[C@H]([C@H](C)NC(C)=O)[C@@]4(COC(C)=O)CC[C@@H]32)C1 (single isomer, unassigned; diac) [C3, Acétatede 3 β, 20 α-diacétamido-pregn-5-en-18-ol] | 25 - 93% | 16-98% | nette diminution | diminution systématique
2 | CC(=O)N(C)[C@H]1CC[C@@]2(C)[C@@H](CC[C@@H]3[C@@H]2CC[C@]2(C)[C@@H]([C@H](C)N(C)C)CC[C@@H]32)C1 [C2, N-[(3 β, 5 α, 20S)-20-(diméthylamino)pregnan-3-yl]-N-méthyl-acétamide] | 25 - 93% | 16-98% | nette diminution | diminution systématique
3 | CC(=O)N(C)[C@H]1CC[C@@]2(C)C(=C[C@H](O)[C@H]3[C@@H]4CC[C@@H]5[C@H](C)OC(=O)[C@@]54CC[C@@H]32)C1 [C4, Acide 3-(acétylméthylamino)-7,20-dihydroxy-, γ-lactone, (3 β, 7 β ,20S)-pregn-5-èn-18-oïque] | 25 - 93% | 16-98% | nette diminution | diminution systématique
4 | CC(=O)N(C)[C@H]1CC[C@@]2(C)C(=CC(=O)[C@H]3[C@@H]4CC[C@@H]5[C@H](C)OC(=O)[C@@]54CC[C@@H]32)C1 [C5, Acide 20 α-hydroxy-3 β-(N-méthylacétamido)-7-oxo-, γ-lactone pregn-5-èn-18-oïque] | 25 - 93% | 16-98% | nette diminution | diminution systématique
5 | CC(=O)N(C)[C@H]1CC[C@@]2(C)C(=CC[C@H]3[C@@H]4CC[C@@H]5[C@H](C)N(C(C)=O)C[C@@]54CC[C@@H]32)C1 [C6, N-acétyl-3 β-(N-méthylacétamido)-norcon-5-énine] | 25 - 93% | 16-98% | nette diminution | diminution systématique
